From article PMC10897203
These are yes or no findings as the source states them, for the method shown. For some assays here: In cells and extracts the contact can be indirect. Some results given as binding are weak or reduced against the parent protein; the word gives no strength. For some assays here: Where a sequence is shown, tags or fusion partners need not be part of it.

Protein sequences, listed by entry. Tags and fused reporters are not part of them.
UniProt P61765: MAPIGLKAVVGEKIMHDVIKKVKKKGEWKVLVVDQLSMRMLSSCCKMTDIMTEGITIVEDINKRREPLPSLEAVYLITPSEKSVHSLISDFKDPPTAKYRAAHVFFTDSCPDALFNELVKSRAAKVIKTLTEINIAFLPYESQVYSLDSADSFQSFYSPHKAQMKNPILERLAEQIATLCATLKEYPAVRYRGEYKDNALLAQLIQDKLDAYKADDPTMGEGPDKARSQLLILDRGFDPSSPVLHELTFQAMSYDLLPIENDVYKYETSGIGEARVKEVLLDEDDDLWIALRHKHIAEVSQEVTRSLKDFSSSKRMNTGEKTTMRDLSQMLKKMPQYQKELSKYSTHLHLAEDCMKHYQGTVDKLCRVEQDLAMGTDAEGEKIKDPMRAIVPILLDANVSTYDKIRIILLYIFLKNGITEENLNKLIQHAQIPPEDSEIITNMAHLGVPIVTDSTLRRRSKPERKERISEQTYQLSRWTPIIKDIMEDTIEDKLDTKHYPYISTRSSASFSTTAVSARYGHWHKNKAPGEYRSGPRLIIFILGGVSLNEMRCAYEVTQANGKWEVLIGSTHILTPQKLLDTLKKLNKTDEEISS
UniProt O75608: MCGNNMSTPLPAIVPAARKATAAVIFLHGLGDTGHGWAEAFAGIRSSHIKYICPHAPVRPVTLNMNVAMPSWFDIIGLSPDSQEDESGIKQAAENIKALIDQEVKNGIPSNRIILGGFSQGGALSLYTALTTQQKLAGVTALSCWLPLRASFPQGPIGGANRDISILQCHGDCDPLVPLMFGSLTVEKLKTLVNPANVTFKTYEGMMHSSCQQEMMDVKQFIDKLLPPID

How the values were obtained:
[1] = molecular target: T1, GFP-DDHD2 (pEGFP-C1-DDHD2^WT) (UniProt O94830); assay: co-IP; GFP-trap (anti-GFP magnetic beads, 1 h at 4 °C) on lysates of transfected PC12 or STXBP1/2 DKO PC12 cells, non-stimulated or stimulated (high K+ in the text, 2 mM BaCl2 in legend and methods); western blot
T1 sequence: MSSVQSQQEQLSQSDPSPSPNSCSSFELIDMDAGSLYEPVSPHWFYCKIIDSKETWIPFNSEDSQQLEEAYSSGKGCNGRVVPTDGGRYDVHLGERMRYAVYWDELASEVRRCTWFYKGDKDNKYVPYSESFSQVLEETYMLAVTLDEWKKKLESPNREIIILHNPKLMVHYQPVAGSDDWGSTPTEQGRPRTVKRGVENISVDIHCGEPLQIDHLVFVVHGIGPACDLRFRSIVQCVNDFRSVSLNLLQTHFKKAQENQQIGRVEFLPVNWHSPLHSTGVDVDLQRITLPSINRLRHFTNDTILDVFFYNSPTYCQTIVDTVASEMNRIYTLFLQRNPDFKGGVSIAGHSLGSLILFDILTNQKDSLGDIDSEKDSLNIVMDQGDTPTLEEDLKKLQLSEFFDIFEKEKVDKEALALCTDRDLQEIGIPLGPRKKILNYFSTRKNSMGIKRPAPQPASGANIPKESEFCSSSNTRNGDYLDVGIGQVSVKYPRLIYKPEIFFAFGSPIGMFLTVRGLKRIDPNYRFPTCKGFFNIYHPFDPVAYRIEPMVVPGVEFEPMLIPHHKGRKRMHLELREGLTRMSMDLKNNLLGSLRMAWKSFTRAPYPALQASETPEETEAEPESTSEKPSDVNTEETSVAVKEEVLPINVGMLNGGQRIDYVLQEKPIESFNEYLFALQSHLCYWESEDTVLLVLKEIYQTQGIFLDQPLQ

[2] = molecular target: GFP-tagged STXBP1^WT (ALPHAScreen) (UniProt P61765); assay: AlphaScreen or HTRF; protein pair co-expressed in Leishmania tarentolae extract (one with C-terminal GFP, the other with C-terminal Cherry-cMyc), diluted in 25 mM HEPES, 50 mM NaCl; biotin-coupled GFP-nanotrap on streptavidin donor beads, anti-cMyc acceptor beads; room temperature

Syntaxin-binding protein 1 (STXBP1), endogenous in PC12 cells (from UniProt P61765 1-594)
binding [1]: binds

myc-tagged LYPLA1 (ALPHAScreen) (from UniProt O75608 1-230) (enzyme)
binding [2]: binds
